B1: CD276: surface protein; cellular activation (protein, UniProt Q5ZPR3 29-534, looked up)
CD276 antigen: LEVQVPEDPVVALVGTDATLCCSFSPEPGFSLAQLNLIWQLTDTKQLVHSFAEGQDQGSAYANRTALFPDLLAQGNASLRLQRVRVADEGSFTCFVSIRDFGSAAVSLQVAAPYSKPSMTLEPNKDLRPGDTVTITCSSYQGYPEAEVFWQDGQGVPLTGNVTTSQMANEQGLFDVHSILRVVLGANGTYSCLVRNPVLQQDAHSSVTITPQRSPTGAVEVQVPEDPVVALVGTDATLRCSFSPEPGFSLAQLNLIWQLTDTKQLVHSFTEGRDQGSAYANRTALFPDLLAQGNASLRLQRVRVADEGSFTCFVSIRDFGSAAVSLQVAAPYSKPSMTLEPNKDLRPGDTVTITCSSYRGYPEAEVFWQDGQGVPLTGNVTTSQMANEQGLFDVHSVLRVVLGANGTYSCLVRNPVLQQDAHGSVTITGQPMTFPPEALWVTVGLSVCLIALLVALAFVCWRKIKQSCEEENAGAEDQDGEGEGSKTALQPLKHSDSKEDDGQEIA
B2: PTK7: surface protein; cellular adhesion, signal transduction, RPC (protein, UniProt Q13308 31-1070, looked up)
Inactive tyrosine-protein …: AIVFIKQPSSQDALQGRRALLRCEVEAPGPVHVYWLLDGAPVQDTERRFAQGSSLSFAAVDRLQDSGTFQCVARDDVTGEEARSANASFNIKWIEAGPVVLKHPASEAEIQPQTQVTLRCHIDGHPRPTYQWFRDGTPLSDGQSNHTVSSKERNLTLRPAGPEHSGLYSCCAHSAFGQACSSQNFTLSIADESFARVVLAPQDVVVARYEEAMFHCQFSAQPPPSLQWLFEDETPITNRSRPPHLRRATVFANGSLLLTQVRPRNAGIYRCIGQGQRGPPIILEATLHLAEIEDMPLFEPRVFTAGSEERVTCLPPKGLPEPSVWWEHAGVRLPTHGRVYQKGHELVLANIAESDAGVYTCHAANLAGQRRQDVNITVATVPSWLKKPQDSQLEEGKPGYLDCLTQATPKPTVVWYRNQMLISEDSRFEVFKNGTLRINSVEVYDGTWYRCMSSTPAGSIEAQARVQVLEKLKFTPPPQPQQCMEFDKEATVPCSATGREKPTIKWERADGSSLPEWVTDNAGTLHFARVTRDDAGNYTCIASNGPQGQIRAHVQLTVAVFITFKVEPERTTVYQGHTALLQCEAQGDPKPLIQWKGKDRILDPTKLGPRMHIFQNGSLVIHDVAPEDSGRYTCIAGNSCNIKHTEAPLYVVDKPVPEESEGPGSPPPYKMIQTIGLSVGAAVAYIIAVLGLMFYCKKRCKAKRLQKQPEGEEPEMECLNGGPLQNGQPSAEIQEEVALTSLGSGPAATNKRHSTSDKMHFPRSSLQPITTLGKSEFGEVFLAKAQGLEEGVAETLVLVKSLQSKDEQQQLDFRRELEMFGKLNHANVVRLLGLCREAEPHYMVLEYVDLGDLKQFLRISKSKDEKLKSQPLSTKQKVALCTQVALGMEHLSNNRFVHKDLAARNCLVSAQRQVKVSALGLSKDVYNSEYYHFRQAWVPLRWMSPEAILEGDFSTKSDVWAFGVLMWEVFTHGEMPHGGQADDEVLADLQAGKARLPQPEGCPSKLYRLMQRCWALSPKDRPSFSEIASALGDSTVDSKP
B3: CD9: Integral membrane protein associated with integrins; depletion marker (protein, UniProt P21926 2-228, looked up)
CD9 antigen: PVKGGTKCIKYLLFGFNFIFWLAGIAVLAIGLWLRFDSQTKSIFEQETNNNNSSFYTGVYILIGAGALMMLVGFLGCCGAVQESQCMLGLFFGFLLVIFAIEIAAAIWGYSHKDEVIKEVQEFYKDTYNKLKTKDEPQRETLKAIHYALNCCGLAGGVEQFISDICPKKDVLETFTVKSCPDAIKEVFDNKFHIIGAVGIGIAVVMIFGMIFSMILCCAIRRNREMV
B4: CD133 (clone AC133): surface protein evaluated for PRP enrichment; retinal development (protein, UniProt O43490 20-865, looked up)
Prominin-1: GGQPSSTDAPKAWNYELPATNYETQDSHKAGPIGILFELVHIFLYVVQPRDFPEDTLRKFLQKAYESKIDYDKPETVILGLKIVYYEAGIILCCVLGLLFIILMPLVGYFFCMCRCCNKCGGEMHQRQKENGPFLRKCFAISLLVICIIISIGIFYGFVANHQVRTRIKRSRKLADSNFKDLRTLLNETPEQIKYILAQYNTTKDKAFTDLNSINSVLGGGILDRLRPNIIPVLDEIKSMATAIKETKEALENMNSTLKSLHQQSTQLSSSLTSVKTSLRSSLNDPLCLVHPSSETCNSIRLSLSQLNSNPELRQLPPVDAELDNVNNVLRTDLDGLVQQGYQSLNDIPDRVQRQTTTVVAGIKRVLNSIGSDIDNVTQRLPIQDILSAFSVYVNNTESYIHRNLPTLEEYDSYWWLGGLVICSLLTLIVIFYYLGLLCGVCGYDRHATPTTRGCVSNTGGVFLMVGVGLSFLFCWILMIIVVLTFVFGANVEKLICEPYTSKELFRVLDTPYLLNEDWEYYLSGKLFNKSKMKLTFEQVYSDCKKNRGTYGTLHLQNSFNISEHLNINEHTGSISSELESLKVNLNIFLLGAAGRKNLQDFAACGIDRMNYDSYLAQTGKSPAGVNLLSFAYDLEAKANSLPPGNLRNSLKRDAQTIKTIHQQRVLPIEQSLSTLYQSVKILQRTGNGLLERVTRILASLDFAQNFITNNTSSVIIEETKKYGRTIIGYFEHYLQWIEFSISEKVASCKPVATALDTAVDVFLCSYIIDPLNLFWFGIGKATVFLLPALIFAVKLAKYYRRMDSEDVYDDVETIPMKNMENGNNGYHKDHVYGIHNPVMTSPSQH
B5: CD133 (clone 293C3): surface protein evaluated for PRP enrichment; retinal development (protein, UniProt O43490 20-865, looked up)
Prominin-1: B4 Prominin-1
B6: Podoplanin: Mucin-type transmembrane protein; depletion marker (protein, UniProt Q86YL7 23-162, looked up)
Podoplanin: ASTGQPEDDTETTGLEGGVAMPGAEDDVVTPGTSEDRYKSGLTTLVATSVNSVTGIRIEDLPTSESTVHAQEQSPSATASNVATSHSTEKVDGDTQTTVEKDGLSTVTLVGIIVGVLLAIGFIGAIIVVVMRKMSGRYSP
B7: CD147: surface protein, functions in adhesion (protein, UniProt P35613 22-385, looked up)
Basigin: AAGFVQAPLSQQRWVGGSVELHCEAVGSPVPEIQWWFEGQGPNDTCSQLWDGARLDRVHIHATYHQHAASTISIDTLVEEDTGTYECRASNDPDRNHLTRAPRVKWVRAQAVVLVLEPGTVFTTVEDLGSKILLTCSLNDSATEVTGHRWLKGGVVLKEDALPGQKTEFKVDSDDQWGEYSCVFLPEPMGTANIQLHGPPRVKAVKSSEHINEGETAMLVCKSESVPPVTDWAWYKITDSEDKALMNGSESRFFVSSSQGRSELHIENLNMEADPGQYRCNGTSSKGSDQAIITLRVRSHLAALWPFLGIVAEVLVLVTIIFIYEKRRKPEDVLDDDDAGSAPLKSSGQHQNDKGKNVRQRNSS
B8: CD344 (Frizzled): surface protein; bipolar cell development, RPE development (protein, UniProt Q9ULV1 37-537, looked up)
Frizzled-4: FGDEEERRCDPIRISMCQNLGYNVTKMPNLVGHELQTDAELQLTTFTPLIQYGCSSQLQFFLCSVYVPMCTEKINIPIGPCGGMCLSVKRRCEPVLKEFGFAWPESLNCSKFPPQNDHNHMCMEGPGDEEVPLPHKTPIQPGEECHSVGTNSDQYIWVKRSLNCVLKCGYDAGLYSRSAKEFTDIWMAVWASLCFISTAFTVLTFLIDSSRFSYPERPIIFLSMCYNIYSIAYIVRLTVGRERISCDFEEAAEPVLIQEGLKNTGCAIIFLLMYFFGMASSIWWVILTLTWFLAAGLKWGHEAIEMHSSYFHIAAWAIPAVKTIVILIMRLVDADELTGLCYVGNQNLDALTGFVVAPLFTYLVIGTLFIAAGLVALFKIRSNLQKDGTKTDKLERLMVKIGVFSVLYTVPATCVIACYFYEISNWALFRYSADDSNMAVEMLKIFMSLLVGITSGMWIWSAKTLHTWQKCSNRLVNSGKVKREKRGNGWVKPGKGSETVV
B9: CD200: surface protein; cellular maintenance and retinal homeostasis (protein, UniProt P41217 31-278, looked up)
OX-2 membrane glycoprotein: QVQVVTQDEREQLYTPASLKCSLQNAQEALIVTWQKKKAVSPENMVTFSENHGVVIQPAYKDKINITQLGLQNSTITFWNITLEDEGCYMCLFNTFGFGKISGTACLTVYVQPIVSLHYKFSEDHLNITCSATARPAPMVFWKVPRSGIENSTVTLSHPNGTTSVTSILHIKDPKNQVGKEVICQVLHLGTVTDFKQTVNKGYWFSVPLLLSIVSLVILLVLISILLYWKRHRNQDRGELSQGVQKMT

Key:
[1] = test system: D75 PRP product; assay type: cell-based, human; conditions: for % co-expression with RCVRN: dual staining; for % (antigen+/recoverin−): off-target expression
[2] = test system: PRP cell population; test: Flow analysis of depletion marker candidates against recoverin; assay type: cell-based, human; conditions: depletion markers; for % antigen only: other cell types labeled

Molecule | % co-expression with RCVRN [1] [%] | % (antigen+/recoverin−) [1] [%] | % co-expression with RCVRN [2] [%] | % antigen only [2] [%]
CD56 (NCAM): Neuron cell surface adhesion molecule; surface protein evaluated for PRP enrichment | 37.5 | 61.4 | – | –
CD49f: Integrin alpha 6; depletion marker | – | – | 11 | 41.2
PSA-NCAM: surface protein; protects against light-induced retinal degeneration | 36.1 | 61 | – | –
CD184 (CKCR4): Chemokine receptor that facilitates cellular chemotactic activity | 32.9 | 51.3 | – | –
CD298: Sodium/potassium-transporting ATPase subunit beta-3 | 36.7 | 60.5 | – | –
CD340: Cell surface receptor tyrosine protein kinase ErbB2; depletion marker | – | – | 3.6 | 31.5
CD81: Tetraspanis protein; surface protein evaluated for PRP enrichment | 36.7 | 50.3 | – | –
B1 | 39.7 | 58.7 | – | –
B2 | 13.6 | 35.2 | – | –
B3 | – | – | 5.4 | 32.7
B4 | 9.1 | 1.5 | – | –
B5 | 9.7 | 1.8 | – | –
B6 | – | – | 3.6 | 32.5
B7 | 38.1 | 43.5 | – | –
B8 | 33.3 | 14.1 | – | –
B9 | 35.9 | 63.2 | – | –

From patent US12110503B2, “Method for differentiation of ocular cells and use thereof” (FUJIFILM Cellular Dynamics, Inc., priority 2018, dated 2024)
